Assay: Real sample analysis: determination of Cr^3+ in spiked tap water by emission

C=CCN(CC=C)CCN1C(=O)c2ccccc2C12c1ccc(N(CC)CC)cc1Oc1cc(N(CC)CC)ccc12 [Ligand L1]
Cr^3+ Found (pH 7.2, Cr^3+ added 10 μM): 9.81 µM | Cr^3+ Found (pH 7.2, Cr^3+ added 20 μM): 19.67 µM
